From PubChem BioAssay AID540303 (National Center for Advancing Translational Sciences (NCATS), 2011)
Hit rate of the full screen: of about 330,000 compounds, about 1,000 (0.3%) were called active. The shares of active, inactive and inconclusive entries below differ from those in the screen. Calls follow the shape of the dose curve; as a rule, active = well fitted inhibition curve with a large enough effect; inconclusive = small, poorly fitted or top-dose-only effect; inactive = no such curve, though single readings can be large or run the other way; tested in mouse RAW 264.7 cells. A potency beside an inconclusive call is a rough fit, not a confirmed value.

Assay: qHTS for Inhibitors of Cell Surface uPA Generation; also: nearly all actives have a fitted effect of over 55% in size
Details: cell surface uPA generation assay; series mostly up to 38.3 µM; activity change, negative = inhibition: at the top concentration
How it was run: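 Murine RAW 264.7 cells are treated for 24 h with compound up to 38.3 uM final. Cell ATP, measured by ATP-Lite, remains high if blocking the uPA cascade prevents LF from reaching the cytoplasm.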
% is scaled to controls: 0 for no effect and ±100 for the full control effect; potency is read from the fitted curve at half-maximal effect.

| SMILES | Potency | activity change, negative = inhibition |
| --- | --- | --- |
| COc1cccc(C2CC(c3ccc(C)cc3)n3nc(N)nc3N2)c1 (centres undefined) | inconclusive: 31.6 µM [inhibitor, partial curve, poor fit] |  |
| CNc1nc(-c2ccc3c(c2)CCN3C(=O)c2cccc(F)c2)cs1 | active: 7.08 µM |  |
| CCC(C)NC(=O)c1nc2c(nnn2Cc2ccccc2Cl)c(=O)[nH]1 (centres undefined) |  | inactive: -2.47% |
| COc1c2ccc(C(=O)NCc3cc(C(F)(F)F)cc(C(F)(F)F)c3)cc2nn1C | inconclusive: 3.16 µM [inhibitor, partial curve, poor fit] |  |
| CCCCCCCCCNC(=O)[C@H](NC(=O)COc1ccccc1)[C@@H]1NC(C(=O)OC)C(C)(C)S1 (some centres undefined) | inconclusive: 28.2 µM [inhibitor, single point] |  |
| O=c1cc(-c2ccc(O)c(O)c2)oc2cc(O[C@@H]3O[C@H](CO)[C@@H](O)[C@H](O)[C@H]3O)cc(O)c12 | inconclusive: 2.82 µM [inhibitor, partial curve] |  |
| COc1ccc(-c2c(C)cc3oc(=O)cc(-c4ccccc4)c3c2C)cc1OC | inconclusive: 10 µM [inhibitor, partial curve] |  |
| CC(CNC(=O)c1cc(COc2ccc3ncccc3c2)on1)c1ccccc1 (centres undefined) | inconclusive: 14.1 µM [inhibitor, single point] |  |
| O=C(NCc1ccc(F)cc1)C(Cc1ccccc1)n1cccc1 (centres undefined) |  | inactive: -23.6% |
| O=C(COc1ccc(C(=S)N2CCC(Cc3ccccc3)CC2)cc1)N1CCOCC1 | inconclusive: 3.16 µM [inhibitor, partial curve, poor fit] |  |
| CC(C)n1nnnc1SCC(=O)c1ccc2c(c1)OCCO2 |  | inactive: -0.95% |
| C=CC(=O)Nc1ccc(Nc2nc(NC3CCC(N(C)C)CC3)nc3c2ncn3C(C)C)cc1 (centres undefined) | inconclusive: 7.94 µM [inhibitor, partial curve, poor fit] |  |
| CN(C)S(=O)(=O)c1ccc(C(=O)/C=C/c2cccnc2)cc1 |  | inactive: 3.13% |
| O=C(Nc1cccc(S(=O)(=O)Nc2ccc(Cl)cc2)c1)c1ccc(Cl)nc1 | active: 5.01 µM |  |
| CCSc1c([N+](=O)[O-])c(=O)n(-c2ccccc2)c2ccccc12 | inconclusive: 11.2 µM [inhibitor, single point] |  |
| Cn1c(-c2ccccc2)cnc1NCc1ccccc1 | inconclusive: 31.6 µM [inhibitor, single point] |  |
| Oc1ccccc1-n1c(-c2ccccc2)ccc1-c1ccccc1 | inconclusive: 12.6 µM [inhibitor, single point] |  |
| COc1ccc(C(=O)Nc2cc(OCc3ccccc3)c(Cl)cc2Cl)cc1 |  | inactive: 13.5% |
| C=CCN1CCc2c(cc(O)c(O)c2Br)[C@@H](c2ccccc2)C1 | inconclusive: 6.31 µM [inhibitor, partial curve, poor fit] |  |
| CC(=O)c1sc(-c2ccccc2)cc1N |  | inactive: -2.3% |
| COc1ccc(Cl)cc1NC(=O)NCC1CCN(Cc2ccccc2F)CC1 | inconclusive: 11.2 µM [inhibitor, single point] |  |
| O=C(NNC(=O)c1ccc2ccccc2n1)c1ccc(O)cc1 | inconclusive: 25.1 µM [inhibitor, partial curve, poor fit] |  |

Taken from above:
CC(=O)c1sc(-c2ccccc2)cc1N – activity change, negative = inhibition: inactive: -2.3%
CC(CNC(=O)c1cc(COc2ccc3ncccc3c2)on1)c1ccccc1 (centres undefined) – Potency: inconclusive: 14.1 µM [inhibitor, single point]

Following part:

| SMILES | Potency | activity change, negative = inhibition |
| --- | --- | --- |
| O=C(CNS(=O)(=O)c1ccccc1)Nc1ccc(F)cc1F |  | inactive: 1.23% |
| O=C(NCc1ccco1)/C(=C/c1ccc(C(F)(F)F)cc1)c1nc2ccccc2[nH]1 | inconclusive: 5.01 µM [inhibitor, partial curve, poor fit] |  |
| O=C(NCc1ccco1)C1CCN(c2nc3ccccc3n2Cc2ccccc2F)CC1 |  | inactive: -18.2% |
| COc1ccccc1C(=O)Nc1ccnn1C1CCN(Cc2cc(C)c(C)cc2C)CC1 | inconclusive: 25.1 µM [inhibitor, single point] |  |
| O=C(NNc1ccc(O)cc1)c1ccc(Br)cc1 | inconclusive: 11.2 µM [inhibitor, partial curve, poor fit] |  |
| COc1ccc(C(CCNCc2ccc(N(C)C)cc2)c2ccccc2)cc1 (centres undefined) |  | inactive: -4.41% |
| O=C(Nc1ccc2nc(-c3cccnc3)[nH]c2c1)c1ccccc1F |  | inactive: -5.79% |
| O=C(CN(Cc1ccco1)Cc1ccco1)Nc1cc(S(=O)(=O)N2CCCCC2)ccc1Cl | inconclusive: 7.08 µM [inhibitor, single point] |  |
| O=C(C1CCN(S(=O)(=O)c2cccc3cccnc23)CC1)N1CCN(c2ccc(Cl)cc2)CC1 | inconclusive: 20 µM [inhibitor, single point] |  |
| COc1ccc(/C=N/NC(=O)c2nc(Cl)c(Cl)c(N)c2Cl)cc1COc1ccccc1F |  | inactive: 1.25% |
| COc1cccc(-c2ccc(NC(=O)C3CCCN(Cc4cnn(C)c4C)C3)cc2)c1 (centres undefined) | inconclusive: 7.08 µM [inhibitor, partial curve, poor fit] |  |
| Brc1ccc(-c2nc3ncccn3c2NC2CCCCC2)o1 |  | inactive: 11.6% |
| CCOc1ccc(S(=O)(=O)N2CCCCC2)cc1NC(=O)CN1CCCC1c1cccs1 (centres undefined) | inconclusive: 8.91 µM [inhibitor, single point] |  |
| COc1ccccc1-c1nnc(SCC(=O)Nc2ccc(N3CCOCC3)cc2)n1C | inconclusive: 0.316 µM [inhibitor, full curve, poor fit] |  |
| Cc1ccc(N=Nc2c(O)ccc3n[nH]nc23)cc1 | inconclusive: 7.94 µM [inhibitor, partial curve, poor fit] |  |
| CCN1CCN(S(=O)(=O)c2ccc(Cl)c(C(=O)N(C)Cc3ccc(C(C)(C)C)cc3)c2)CC1 | inconclusive: 12.6 µM [inhibitor, single point] |  |
| COc1cc(OC)c(OC)cc1CN1CCN(Cc2ccc(C(F)(F)F)cc2)CC1 | inconclusive: 31.6 µM [inhibitor, partial curve, poor fit] |  |
| O=C(C[C@H]1C[C@H](C(=O)N2CCCCC2)[C@@]2(CCc3ccccc3)c3[nH]c4cc(-c5ccco5)ccc4c3CCN2C1=O)NCc1ccco1 | inconclusive: 31.6 µM [inhibitor, partial curve, poor fit] |  |
| O=C(Nc1ccc(Cl)cc1)Nc1cnccn1 | inconclusive: 5.01 µM [inhibitor, single point] |  |
| COc1ccc(-c2csc3nc(-c4ccccc4F)oc(=O)c23)cc1OC | inconclusive: 5.01 µM [inhibitor, partial curve] |  |
| O=C(C1CCCN(Cc2ccccc2F)C1)N1CCCC1 (centres undefined) | inconclusive: 28.2 µM [inhibitor, single point] |  |
| CCCCCCCCOC(=O)C[N+](C)(C)C/C=C(/C)Cl | inconclusive: 12.6 µM [inhibitor, single point] |  |

| SMILES | Potency | activity change, negative = inhibition |
| --- | --- | --- |
| CC(=O)c1cc(CN2CCCCC2)cc(OC(C)C)c1 | inconclusive: 12.6 µM [inhibitor, single point] |  |
| CCN(CC)CC(=O)Nc1sc(C)cc1C(=O)c1ccccc1 |  | inactive: -4.13% |
| Cc1cccc(C#Cc2ccccc2)n1 | inconclusive: 10 µM [inhibitor, single point] |  |
| CCOC(=O)c1cc(C)sc1/N=C/C1C(=O)CCCC1=O | inconclusive: 10 µM [inhibitor, single point] |  |
| CC(=O)Nc1ccc(/C=N/NC(=O)c2cc3cc(C)ccc3nc2C)cc1 | inconclusive: 5.01 µM [inhibitor, partial curve] |  |
| C/C(=C\c1cccc(Br)c1)C(=O)c1c(C)cc(C)[nH]c1=O | inconclusive: 12.6 µM [inhibitor, single point] |  |
| Cc1ccc(NC(=O)CSCC(=O)NC2(C)CCS(=O)(=O)C2)cc1 (centres undefined) | inconclusive: 0.01 µM [inhibitor, full curve, poor fit] |  |
| COc1ccc(NS(=O)(=O)c2ccc(N3CCCCC3)c(N)c2)cc1 | inconclusive: 10 µM [inhibitor, single point] |  |
| O=C(NN1C(=O)/C(=C/c2cccs2)SC1=S)c1ccncc1 |  | inactive: -7.37% |
| COc1ccc(-c2nc(NC(=O)C3CCN(c4nc5ccccc5o4)CC3)sc2C)cc1 |  | inactive: -4.09% |
| O=S1(=O)c2ccc(Br)cc2N2CCC[C@@H]2CN1Cc1ccc(Cl)cc1 | inconclusive: 31.6 µM [inhibitor, partial curve, poor fit] |  |
| Cn1cnnc1Sc1ccc(/C=C/C(=O)c2ccc(O)cc2)cc1[N+](=O)[O-] | active: 8.91 µM |  |
| CCCCNC(=O)CSc1cc(=O)n(C)c2ccccc12 |  | inactive: -1.12% |
| Cc1cc(C)n2ncc(/C(N)=N/OC(=O)Nc3ccccc3)c2n1 | inconclusive: 3.98 µM [inhibitor, partial curve, poor fit] |  |
| CC1(C)CC(=O)C=C(/C=C/c2ccccc2)C1 | inconclusive: 0.0316 µM [inhibitor, full curve, poor fit] |  |
| CCN1C(=O)[C@H]2[C@H]3CN=C(SCC(=O)c4ccccc4)N3[C@@](CC)(C(=O)OC)[C@H]2C1=O | inconclusive: 28.2 µM [inhibitor, single point] |  |
| Cc1cc2cc(CCNC(=O)c3ccc(S(=O)(=O)N4CCCC4)cc3)c(=O)[nH]c2cc1C | inconclusive: 6.31 µM [inhibitor, partial curve] |  |
| COc1ccccc1N1CC(C(=O)Nc2nnc(SCC(=O)NCC3CCCO3)s2)CC1=O (centres undefined) | inconclusive: 1.78 µM [inhibitor, full curve, poor fit] |  |
| C=CCN(CC=C)S(=O)(=O)c1ccc(C(=O)Nc2nnc(COC)o2)cc1 | inconclusive: 28.2 µM [inhibitor, single point] |  |
| CCOC(=O)c1cc(-c2ccc(OC)cc2)n(CCC(=O)NC2CCN(Cc3ccccc3)CC2)c1C | inconclusive: 12.6 µM [inhibitor, single point] |  |
